PMC9508819, “Rbp95 binds to 25S rRNA helix H95 and cooperates with the Npa1 complex during early pre-60S particle maturation”
Results are given in words; binding and its absence hold for the method and conditions named. Binding seen in cells or lysates may run through a third protein. A yes stands for co-enrichment or nearness to the bait. Other partners may have been found.

Target: T1, Npa1-TurboID (S. cerevisiae), P34241
T1 chain: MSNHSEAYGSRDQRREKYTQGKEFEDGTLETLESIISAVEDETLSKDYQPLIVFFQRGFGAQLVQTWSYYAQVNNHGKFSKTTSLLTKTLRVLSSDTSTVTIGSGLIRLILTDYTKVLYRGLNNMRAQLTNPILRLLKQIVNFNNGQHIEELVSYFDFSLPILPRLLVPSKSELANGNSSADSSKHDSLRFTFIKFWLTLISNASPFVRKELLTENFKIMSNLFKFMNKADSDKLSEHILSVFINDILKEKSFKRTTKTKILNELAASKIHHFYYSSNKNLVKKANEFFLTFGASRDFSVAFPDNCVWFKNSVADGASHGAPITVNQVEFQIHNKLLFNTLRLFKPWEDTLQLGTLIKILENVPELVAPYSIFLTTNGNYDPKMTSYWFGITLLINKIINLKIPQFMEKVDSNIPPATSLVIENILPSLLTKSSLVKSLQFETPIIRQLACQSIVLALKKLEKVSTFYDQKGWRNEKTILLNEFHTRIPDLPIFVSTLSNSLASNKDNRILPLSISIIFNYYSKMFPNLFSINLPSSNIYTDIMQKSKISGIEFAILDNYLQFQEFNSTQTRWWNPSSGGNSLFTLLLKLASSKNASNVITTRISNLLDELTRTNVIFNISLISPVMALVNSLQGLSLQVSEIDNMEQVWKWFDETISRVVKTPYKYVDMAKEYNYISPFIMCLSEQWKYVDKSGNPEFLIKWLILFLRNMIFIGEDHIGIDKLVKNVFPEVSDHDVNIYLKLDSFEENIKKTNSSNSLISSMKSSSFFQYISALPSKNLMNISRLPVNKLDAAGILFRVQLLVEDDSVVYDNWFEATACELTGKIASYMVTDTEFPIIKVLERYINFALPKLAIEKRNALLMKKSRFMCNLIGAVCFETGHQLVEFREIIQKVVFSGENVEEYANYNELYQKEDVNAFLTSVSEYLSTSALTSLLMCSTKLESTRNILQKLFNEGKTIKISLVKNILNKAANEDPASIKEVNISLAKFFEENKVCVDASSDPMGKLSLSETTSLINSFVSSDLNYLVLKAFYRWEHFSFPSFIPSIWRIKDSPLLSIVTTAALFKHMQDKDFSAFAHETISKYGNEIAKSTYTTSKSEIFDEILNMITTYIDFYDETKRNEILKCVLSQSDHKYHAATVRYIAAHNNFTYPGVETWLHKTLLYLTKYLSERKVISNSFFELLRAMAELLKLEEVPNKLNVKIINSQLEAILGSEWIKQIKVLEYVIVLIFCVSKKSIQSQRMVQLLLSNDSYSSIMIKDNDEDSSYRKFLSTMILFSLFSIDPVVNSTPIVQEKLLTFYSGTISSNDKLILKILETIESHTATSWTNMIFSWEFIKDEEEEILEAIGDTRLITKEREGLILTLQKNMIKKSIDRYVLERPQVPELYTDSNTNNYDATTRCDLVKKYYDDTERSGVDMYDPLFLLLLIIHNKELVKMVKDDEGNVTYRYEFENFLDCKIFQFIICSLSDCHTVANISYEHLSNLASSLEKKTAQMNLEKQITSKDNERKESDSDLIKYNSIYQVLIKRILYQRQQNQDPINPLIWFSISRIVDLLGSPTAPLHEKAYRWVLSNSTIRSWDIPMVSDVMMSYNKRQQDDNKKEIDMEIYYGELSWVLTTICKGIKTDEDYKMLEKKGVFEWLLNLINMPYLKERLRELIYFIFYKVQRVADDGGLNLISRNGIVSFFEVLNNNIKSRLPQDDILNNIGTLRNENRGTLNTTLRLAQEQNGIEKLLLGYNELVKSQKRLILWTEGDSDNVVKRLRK
Assay: proximity labelling; TurboID: C-terminally TurboID-tagged bait from the CUP1 promoter in yeast, 500 uM copper sulfate and biotin for 1 h; biotinylated proteins purified on streptavidin agarose, LC-MS/MS; enrichment against NLS-GFP-TurboID control
Conditions: remark: other sources report otherwise

binding: binds
B1: Npa2, P47108 1-1174 (protein)
chain: MGDLTEELSIPDNAQDLSKLLRSTSTKPHQIAEIVSKFDKLETYFPKKEIFVLDLLIDRLNNGNLDDFKTSEHTWIIFTRLLDAINDPISIKKLLKKLKTVPVMIRTFFLWPKDKLLTRSVSFIKAFFAINDYLIVNFSVEESFQLLEHAINGLSSCPTTDFALSYLQDACNLTHVDNITTTDNKIATCYCKHMLLPSLRYFAQTKNSASSNQSFIRLSHFMGKFLLQPRIDYMKLNKKFVQENASEITDDMAYYYFATFVTFLSKDNFAQLEVIFTILGAKKPSLECRFLNLLSESKKTVSQEFLEALLLEMLASTDESGVLSLIPIILKLDIEVAIKHIFRLLELIQLENLNDPLFSSHIWDLIIQSHANARELSDFFAKINEYCSRKGPDSYFLINHPAYVKSITKQLFTLSSLQWKNLLQALLDQVNHDSTNRVPLYLIRICLEGLSEGASRATLDEVKPILSQVFTLESFNNSLQWDLKYHIMEVYDDIVPAEELEKIDYVLSSNIFDTTSADVEELFFYCFKLREYISFDLSDAKKKFMRHFEILDEERKSNLSYSVVSKFATLVNNNFTREQISSLIDSLLLNSTNLSSLLKNDDIFEETNITYALINKLASSYHQTFALEALIQIPIQCINKNVRVALINNLTCESFCLDSATRECLLHLLSSPTFKSNIETNFYELCEKTIMSPEMAISETGDEKKEIEDKISIFEKVWTNHLSQAKEPVSEKFLESGYDIVKQSMSLSNGDSKLIIAGFTIAKFLKPDNKHRDIQGMAISYAVKILENYSENFESETIPLFRISMSTLYKIITTGQGDISKHKSRILDIFSKIMLRYHSKKVYHAPEEQEMFLVHSLLTENKLEYIFAEYLNIEHTDKCDSALGFCLEESLKQGPDAFNRLLWNSAKSFSTISQPCAEKFVRVFIIMSKRIARDNNLGHHLFVIALLEAYTYCDIEKFGYKSYLLLFNAIKEFLVSKPWLFSQYCIEMLLPFCLKTLAFIVNHESTDEINEGFINIIEVIDHMLLVHRFKFSNRHHLFNSVLCQILEIIAIHDGTLCANSADAVARLITNYCEPYNVSNAQNGQKNNLSSKISLIKQSIRKNVLVVLTKYIQLSITTQFSLNIKKSLQPGIHAIFDILSQNELNQLNAFLDTPGKQYFKALYLQYKKVGKWRED
